The values below come from publication PMC3887093.

Chains of the proteins cited; added tags and fusions are not shown. Residues count along the entry.
UniProt P22290, residues 211-525: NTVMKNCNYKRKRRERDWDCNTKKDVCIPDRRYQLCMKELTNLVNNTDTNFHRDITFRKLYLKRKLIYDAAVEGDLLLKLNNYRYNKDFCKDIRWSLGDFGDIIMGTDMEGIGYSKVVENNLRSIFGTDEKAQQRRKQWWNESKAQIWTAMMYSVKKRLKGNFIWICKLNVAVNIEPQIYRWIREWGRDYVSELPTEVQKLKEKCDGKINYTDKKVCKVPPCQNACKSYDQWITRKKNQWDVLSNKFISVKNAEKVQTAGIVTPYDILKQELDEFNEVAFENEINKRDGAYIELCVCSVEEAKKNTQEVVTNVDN

The target in experiment [1] is Plasmodium vivax Duffy binding protein region II (DBP-RII), recombinant (Plasmodium vivax) (UniProt P22290). Put plainly: crystal structure; DBP-RII with DARC 16-43, heterotrimer (two DBP-RII, one DARC); 0.1 M HEPES pH 7.4, 20% PEG 6000; 1.95 Å; both purified.
Experiment [2] shares this target. Put plainly: crystal structure; DBP-RII with DARC 14-43, heterotetramer (two DBP-RII, two DARC); 0.1 M HEPES pH 7.4, 20% PEG 6000; 2.6 Å; both purified.

These are yes or no findings as the source states them, for the method shown. Some results given as binding are weak or reduced against the parent protein; the word gives no strength.

For the substance “Plasmodium vivax Duffy binding protein region II (DBP-RII), recombinant (from UniProt P22290 211-525) (domain or fragment)”, the binding result in experiment [1] and in experiment [2] was “binds” each time.
